# Reference: patent US20210171576A1, “METHODS FOR TREATING CANCER WITH ACYLDEPSIPEPTIDE ANALOGS” (priority 2018, published 2021)
# At least one structure is not confirmed: it was looked up by name or label, or the drawing left a doubt. Where a SMILES comes first, the peptide text is derived from it. Bridges are numbered along the chain shown (N, C = ends). [ ]: non-standard residue; d: D form. The star is where a group is joined. Phe(3,5-F2) = N[C@@H](Cc1cc(F)cc(F)c1)C(=O)O; Pro(4R-Me) = C[C@H]1CN[C@H](C(=O)O)C1; aThr = C[C@H](O)[C@H](N)C(=O)O; Pip = O=C(O)[C@@H]1CCCCN1; X1 = CCC/C=C/C=C/C(=O)*
# System: MDA-MB-231 WT cells
# Assay: Cytotoxicity test, SRB staining, 72 hours
# Type: cell-based, human
# Conditions: MDA-MB-231, 72 hours
smiles,measurement,value
"CCC/C=C/C=C/C(=O)N[C@@H](Cc1cc(F)cc(F)c1)C(=O)N[C@@H]1C(=O)N2CCC[C@H]2C(=O)N2CCCC[C@H]2C(=O)N[C@@H](C)C(=O)N2C[C@H](C)C[C@H]2C(=O)O[C@H]1C [ADEP-14] (X1-[Phe(3,5-F2)][aThr]P[Pip]A[Pro(4R-Me)]; ester 2-C)",IC50,1.35 ± 0.O4 μM
